Reference: paper doi:10.1101/2024.10.20.619318
Like-named read-outs stand apart in the source and are kept apart here. These are yes or no findings as the source states them, for the method shown. Binding seen in cells or lysates may run through a third protein. Some results given as binding are weak or reduced against the parent protein; the word gives no strength. Tags and fused reporters may be left off the sequences shown. Each block holds one molecule with its values, some of them ahead of it.

Protein sequences, listed by entry. Tags and fused reporters are not part of them.
UniProt O95573: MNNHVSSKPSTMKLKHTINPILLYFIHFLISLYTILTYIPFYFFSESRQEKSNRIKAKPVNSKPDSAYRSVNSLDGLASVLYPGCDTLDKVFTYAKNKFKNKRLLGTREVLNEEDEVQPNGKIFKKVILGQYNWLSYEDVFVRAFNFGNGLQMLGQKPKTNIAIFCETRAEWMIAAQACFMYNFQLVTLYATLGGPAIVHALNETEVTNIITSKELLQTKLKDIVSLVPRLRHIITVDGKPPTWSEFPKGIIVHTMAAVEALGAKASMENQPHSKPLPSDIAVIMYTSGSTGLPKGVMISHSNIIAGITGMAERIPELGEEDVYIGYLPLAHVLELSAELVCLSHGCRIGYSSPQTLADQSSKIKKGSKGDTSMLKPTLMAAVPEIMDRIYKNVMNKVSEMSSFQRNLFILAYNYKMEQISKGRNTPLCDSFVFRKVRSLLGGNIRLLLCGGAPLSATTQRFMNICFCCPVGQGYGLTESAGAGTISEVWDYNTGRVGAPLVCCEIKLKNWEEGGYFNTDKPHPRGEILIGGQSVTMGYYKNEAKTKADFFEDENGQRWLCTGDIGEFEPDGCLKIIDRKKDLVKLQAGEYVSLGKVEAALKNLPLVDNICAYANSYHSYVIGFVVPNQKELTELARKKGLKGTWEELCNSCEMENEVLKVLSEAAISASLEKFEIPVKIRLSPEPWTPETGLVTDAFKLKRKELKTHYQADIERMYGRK

What was measured:
GFP-Sec14L6 (human) [1] = target: T1, GFP-Sec14L6 (human) (UniProt B5MCN3); experiment: co-IP
T1 sequence: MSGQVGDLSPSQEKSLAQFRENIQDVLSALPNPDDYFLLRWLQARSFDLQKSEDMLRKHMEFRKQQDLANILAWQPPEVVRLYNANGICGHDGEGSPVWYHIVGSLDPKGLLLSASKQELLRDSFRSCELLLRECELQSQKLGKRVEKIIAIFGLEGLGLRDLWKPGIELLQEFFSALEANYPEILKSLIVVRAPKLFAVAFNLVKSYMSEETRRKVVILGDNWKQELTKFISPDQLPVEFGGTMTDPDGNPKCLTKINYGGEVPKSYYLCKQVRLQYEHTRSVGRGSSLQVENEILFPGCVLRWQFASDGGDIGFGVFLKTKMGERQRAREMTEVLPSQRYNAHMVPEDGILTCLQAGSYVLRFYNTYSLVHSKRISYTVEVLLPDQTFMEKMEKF

[2] = target: T2, GFP-Sec14L6 lacking a helix (residues 160-185) (human) (UniProt B5MCN3); experiment: co-IP
T2 sequence: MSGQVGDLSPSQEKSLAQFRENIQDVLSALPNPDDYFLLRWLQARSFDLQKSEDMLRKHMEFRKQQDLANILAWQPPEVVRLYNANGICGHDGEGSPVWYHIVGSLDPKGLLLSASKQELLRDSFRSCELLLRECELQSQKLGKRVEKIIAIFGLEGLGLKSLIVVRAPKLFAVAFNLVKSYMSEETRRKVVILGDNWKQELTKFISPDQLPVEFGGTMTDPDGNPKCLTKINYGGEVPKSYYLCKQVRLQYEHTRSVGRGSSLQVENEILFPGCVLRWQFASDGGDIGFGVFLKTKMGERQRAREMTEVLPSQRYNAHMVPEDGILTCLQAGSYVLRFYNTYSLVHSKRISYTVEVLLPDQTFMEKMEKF

[3] = target: T3, GFP-Sec14L6 lacking a helix (residues 193-249) (human) (UniProt B5MCN3); experiment: co-IP
T3 sequence: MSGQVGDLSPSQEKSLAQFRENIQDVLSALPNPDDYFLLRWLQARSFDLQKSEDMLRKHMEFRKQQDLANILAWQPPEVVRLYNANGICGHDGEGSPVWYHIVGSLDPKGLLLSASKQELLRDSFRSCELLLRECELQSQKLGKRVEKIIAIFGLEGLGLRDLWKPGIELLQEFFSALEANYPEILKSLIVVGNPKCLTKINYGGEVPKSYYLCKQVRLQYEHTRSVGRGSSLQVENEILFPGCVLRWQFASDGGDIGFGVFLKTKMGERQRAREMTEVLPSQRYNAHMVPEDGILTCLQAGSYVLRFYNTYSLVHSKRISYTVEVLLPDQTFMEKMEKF

[4] = target: T4, GFP-Sec14L6 lacking a sheet (residues 186-192) (human) (UniProt B5MCN3); experiment: co-IP
T4 sequence: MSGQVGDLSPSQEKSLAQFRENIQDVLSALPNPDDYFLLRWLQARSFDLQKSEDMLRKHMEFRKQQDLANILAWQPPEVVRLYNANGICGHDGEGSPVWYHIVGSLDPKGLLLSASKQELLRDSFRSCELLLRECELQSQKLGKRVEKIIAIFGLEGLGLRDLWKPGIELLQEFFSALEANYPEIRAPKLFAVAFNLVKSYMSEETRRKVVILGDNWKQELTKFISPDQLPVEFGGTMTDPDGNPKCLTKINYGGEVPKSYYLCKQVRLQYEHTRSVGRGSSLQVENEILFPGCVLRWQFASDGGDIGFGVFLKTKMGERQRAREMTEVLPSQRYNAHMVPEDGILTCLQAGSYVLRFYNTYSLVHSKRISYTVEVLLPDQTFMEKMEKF

[5] = target: T5, Sec14L6-GFP-KI (human (endogenous in HeLa)) (UniProt B5MCN3); experiment: co-IP
T5 sequence: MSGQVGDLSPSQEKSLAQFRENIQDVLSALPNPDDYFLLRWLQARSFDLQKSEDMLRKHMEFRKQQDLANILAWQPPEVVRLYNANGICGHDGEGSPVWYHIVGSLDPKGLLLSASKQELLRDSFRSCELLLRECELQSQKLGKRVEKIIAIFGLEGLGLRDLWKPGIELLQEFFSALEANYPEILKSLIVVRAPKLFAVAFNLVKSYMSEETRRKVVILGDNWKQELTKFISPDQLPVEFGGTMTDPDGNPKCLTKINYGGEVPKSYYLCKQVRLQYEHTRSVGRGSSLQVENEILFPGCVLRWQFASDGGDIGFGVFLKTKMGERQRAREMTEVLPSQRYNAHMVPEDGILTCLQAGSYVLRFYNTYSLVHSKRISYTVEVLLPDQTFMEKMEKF

GFP-Sec14L6 (human) [6] = target: T1, GFP-Sec14L6 (human); experiment: co-IP; remark: listed apart in the source
Flag-Sec14L6 (human) = Flag-Sec14L6 (human) (UniProt B5MCN3); experiment: cross-linking

Molecule: PGRMC1-Halo (from UniProt O00264-1 1-195)
binding (GFP-Sec14L6 (human) [1]): binds

Molecule: endogenous ACSL3 (from UniProt O95573 1-720)
binding (GFP-Sec14L6 (human) [1]): binds | binding [2]: binds | binding [3]: binds | binding [4]: binds | binding [5]: binds

Molecule: endogenous PGRMC1 (from UniProt O00264-1 1-195)
binding [5]: binds

The next lines start with the values.

binding (GFP-Sec14L6 (human) [6]): binds
B1: GFP-Sec14L6 (protein, UniProt B5MCN3 1-397)
chain: MSGQVGDLSPSQEKSLAQFRENIQDVLSALPNPDDYFLLRWLQARSFDLQKSEDMLRKHMEFRKQQDLANILAWQPPEVVRLYNANGICGHDGEGSPVWYHIVGSLDPKGLLLSASKQELLRDSFRSCELLLRECELQSQKLGKRVEKIIAIFGLEGLGLRDLWKPGIELLQEFFSALEANYPEILKSLIVVRAPKLFAVAFNLVKSYMSEETRRKVVILGDNWKQELTKFISPDQLPVEFGGTMTDPDGNPKCLTKINYGGEVPKSYYLCKQVRLQYEHTRSVGRGSSLQVENEILFPGCVLRWQFASDGGDIGFGVFLKTKMGERQRAREMTEVLPSQRYNAHMVPEDGILTCLQAGSYVLRFYNTYSLVHSKRISYTVEVLLPDQTFMEKMEKF

binding (Flag-Sec14L6 (human)): binds
B2: Flag-Sec14L6 (protein, UniProt B5MCN3 1-397)
chain: MSGQVGDLSPSQEKSLAQFRENIQDVLSALPNPDDYFLLRWLQARSFDLQKSEDMLRKHMEFRKQQDLANILAWQPPEVVRLYNANGICGHDGEGSPVWYHIVGSLDPKGLLLSASKQELLRDSFRSCELLLRECELQSQKLGKRVEKIIAIFGLEGLGLRDLWKPGIELLQEFFSALEANYPEILKSLIVVRAPKLFAVAFNLVKSYMSEETRRKVVILGDNWKQELTKFISPDQLPVEFGGTMTDPDGNPKCLTKINYGGEVPKSYYLCKQVRLQYEHTRSVGRGSSLQVENEILFPGCVLRWQFASDGGDIGFGVFLKTKMGERQRAREMTEVLPSQRYNAHMVPEDGILTCLQAGSYVLRFYNTYSLVHSKRISYTVEVLLPDQTFMEKMEKF
